Measured data: PubChem BioAssay AID1259287 (Sanger Institute, 2017)

- Screen: 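Confirm knock-downs acting together with BYL719, cetuximab or trametinib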 (follow-up of hits)
- Cell system: human HCT15 colorectal cancer cells
- Reagents: single siRNA against human genes
- Conditions: BYL719 1 µM, cetuximab 5 µg/ml or trametinib 10 nM, or DMSO vehicle
- Detection: 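Survival scaled to control siRNA wells, then a synergy score per drug giving combined effect beyond the expected one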
- Reading the numbers: synergy score with BYL719 and synergy score with cetuximab and synergy score with trametinib: higher = stronger combined killing than expected
- Call rule: 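a hit if BYL719, cetuximab or trametinib yields synergy greater than 0.10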
- Calls: active = synergy with at least one drug; inactive = no synergy with any drug
The deposit covers 160 reagents; shown is an unselected part. 19 of them (12%) were called active. 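Viability seems capped at 1; calls apply to HCT15 cells only, not to validation across other lines.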 Reagents against one gene are numbered here. Further read-outs or replicates are left out here. Not given: the amount of reagent, the time to read-out.

no.	gene knocked down	reagent no.	synergy score with BYL719	synergy score with cetuximab	synergy score with trametinib	call
1	PINK1 (GeneID 65018)	1	-0.264	-0.0588	-0.0412	inactive
2	PINK1 (GeneID 65018)	2	-0.152	0.0496	0.0451	inactive
3	PINK1 (GeneID 65018)	3	-0.0385	-0.119	-0.0293	inactive
4	PINK1 (GeneID 65018)	4	-0.0343	-0.155	-0.0694	inactive
5	PRAG1 (GeneID 157285)	1	0.241	-0.0984	-0.0188	active
6	PRAG1 (GeneID 157285)	2	0.224	-0.0347	-0.101	active
7	PRAG1 (GeneID 157285)	3	-0.179	-0.0385	-0.231	inactive
8	PRAG1 (GeneID 157285)	4	-0.107	-0.116	-0.138	inactive
9	RPS6KA4 (GeneID 8986)	1	-0.023	0.0117	0.0385	inactive
10	RPS6KA4 (GeneID 8986)	2	-0.0692	-0.12	0.0108	inactive
11	RPS6KA4 (GeneID 8986)	3	-0.211	0.000181	-0.0842	inactive
12	RPS6KA4 (GeneID 8986)	4	-0.123	-0.191	-0.0163	inactive
13	MAP3K8 (GeneID 1326)	1	-0.132	0.0243	-0.139	inactive
14	MAP3K8 (GeneID 1326)	2	-0.0169	-0.0581	0.00358	inactive
15	MAP3K8 (GeneID 1326)	3	-0.081	-0.132	-0.0702	inactive
16	MAP3K8 (GeneID 1326)	4	-0.0606	-0.0457	-0.0797	inactive
17	SYK (GeneID 6850)	1	-0.051	-0.183	0.0466	inactive
18	SYK (GeneID 6850)	2	-0.0133	0.0602	0.0957	inactive
19	SYK (GeneID 6850)	3	0.0232	-0.183	0.0103	inactive
20	SYK (GeneID 6850)	4	-0.0183	-0.0444	-0.0386	inactive
21	AK2 (GeneID 204)	1	-0.0979	-0.107	-0.174	inactive
22	AK2 (GeneID 204)	2	-0.0173	-0.0418	-0.0253	inactive
23	AK2 (GeneID 204)	3	-0.173	-0.092	-0.213	inactive
24	AK2 (GeneID 204)	4	-0.101	-0.165	-0.0327	inactive
25	CRIM1 (GeneID 51232)	1	0.0857	-0.0842	-0.00525	inactive
26	CRIM1 (GeneID 51232)	2	-0.251	-0.0617	-0.279	inactive
27	CRIM1 (GeneID 51232)	3	0.00956	0.026	-0.0817	inactive
28	CRIM1 (GeneID 51232)	4	-0.0599	-0.158	-0.224	inactive
29	CDK6 (GeneID 1021)	1	-0.0412	-0.0144	0.133	active
30	CDK6 (GeneID 1021)	2	-0.00239	-0.177	0.0247	inactive
31	CDK6 (GeneID 1021)	3	-0.0793	-0.0444	0.0465	inactive
32	CDK6 (GeneID 1021)	4	0.0817	0.0245	0.143	active
33	NR2F2 (GeneID 7026)	1	-0.0297	0.0367	-0.0445	inactive
34	NR2F2 (GeneID 7026)	2	-0.0625	-0.141	-0.11	inactive
35	NR2F2 (GeneID 7026)	3	-0.0903	-0.0414	-0.0413	inactive
36	NR2F2 (GeneID 7026)	4	-0.0996	-0.211	0.0582	inactive
37	SF3B1 (GeneID 23451)	1	-0.0536	-0.00549	-0.0197	inactive
38	SF3B1 (GeneID 23451)	2	-0.017	-0.00483	0.0258	inactive
39	SF3B1 (GeneID 23451)	3	0.0106	-0.0618	-0.00499	inactive
40	SF3B1 (GeneID 23451)	4	-0.0525	-0.123	-0.0389	inactive

Records above whose target name starts with M or m:
gene knocked down	reagent no.	synergy score with BYL719	synergy score with cetuximab	synergy score with trametinib	call
MAP3K8 (GeneID 1326)	1	-0.132	0.0243	-0.139	inactive
MAP3K8 (GeneID 1326)	2	-0.0169	-0.0581	0.00358	inactive
MAP3K8 (GeneID 1326)	3	-0.081	-0.132	-0.0702	inactive
MAP3K8 (GeneID 1326)	4	-0.0606	-0.0457	-0.0797	inactive

The list goes on:
no.	gene knocked down	reagent no.	synergy score with BYL719	synergy score with cetuximab	synergy score with trametinib	call
41	EPHA6 (GeneID 285220)	1	-0.105	0.0739	-0.0108	inactive
42	EPHA6 (GeneID 285220)	2	0.116	-0.146	0.0241	active
43	EPHA6 (GeneID 285220)	3	-0.018	-0.026	0.013	inactive
44	EPHA6 (GeneID 285220)	4	-0.0155	-0.0642	-0.0739	inactive
45	PIK3CA (GeneID 5290)	1	-0.117	-0.0765	0.0827	inactive
46	PIK3CA (GeneID 5290)	2	-0.0138	0.0935	0.123	active
47	PIK3CA (GeneID 5290)	3	-0.115	-0.0502	0.099	inactive
48	PIK3CA (GeneID 5290)	4	-0.127	0.0719	0.0836	inactive
49	ACVR1 (GeneID 90)	1	-0.12	-0.0601	-0.141	inactive
50	ACVR1 (GeneID 90)	2	0.0222	0.0614	-0.136	inactive
51	ACVR1 (GeneID 90)	3	-0.0469	-0.0444	-0.0617	inactive
52	ACVR1 (GeneID 90)	4	-0.166	0.0019	-0.0723	inactive
53	STK36 (GeneID 27148)	1	-0.151	-0.0751	-0.0958	inactive
54	STK36 (GeneID 27148)	2	-0.0955	-0.114	-0.0197	inactive
55	STK36 (GeneID 27148)	3	-0.171	-0.0428	0.0523	inactive
56	STK36 (GeneID 27148)	4	-0.165	-0.192	-0.0307	inactive
57	PAK1 (GeneID 5058)	1	-0.0722	-0.228	-0.0183	inactive
58	PAK1 (GeneID 5058)	2	0.0482	-0.0697	0.0269	inactive
59	PAK1 (GeneID 5058)	3	0.105	-0.128	0.119	active
60	PAK1 (GeneID 5058)	4	0.00197	-0.142	-0.0967	inactive
